Source: US20230082968A1, “EXOGENOUS NITRIC OXIDE FOR IMPROVED SUSCEPTIBILITY AND LOWERED ANTIBIOTIC RESISTANCE IN RESISTANT RESPIRATORY BACTERIA” (The University of North Carolina at Chapel Hill, priority 2020, published 2023)
Some results were stated once for a whole list of compounds, not compound by compound.

Test system: PAK
Test: Nitric oxide pretreatment with planktonic bacteria
Format: cell-based, Pseudomonas aeruginosa
Details: 4 h exposure to COS/NO at 25% of the MIC prior to antibiotic
Description: After exposure, wells were serially diluted in sterile MilliQ water and spiral plated on TSA. Viability was assessed by colony counting.

C[C@H]1[C@H](NC(=O)/C(=N\OC(C)(C)C(=O)O)c2csc(N)n2)C(=O)N1S(=O)(=O)O [Aztreonam]
PAK susceptibility to antibiotic, decrease with NO-pretreatment compared to without: 3- to 5 log
